Measurements taken from US5041535A (Richter Gedeon Vegyeszeti Gyar Rt., priority 1986, dated 1991).

Experiment: general procedure: solution-phase peptide synthesis; active ester (OPfp) and/or mixed anhydride

Row | Substance | step yield (late stage modification step, diacetate) [%] | isolated yield (whole synthesis, related to the Lys(Z)-ONB.HCl starting material, acid addition salts) [%]
1 | Lys-Glu-Lys-Lys-diacetate | 88 | –
2 | Glp-Lys-NH2 | – | 62
